# Measured values: PubChem BioAssay AID493101 (Broad Institute, 2011)
# This list was built around the results that the source calls inconclusive (neither active nor inactive); the mix of calls is not that of the screen. The source made the active and inactive calls.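 The calls were made as follows: active = luminescence falls with dose and the fitted half-maximal concentration is within ten times the top dose in every run; inconclusive = runs disagree, or a flat moderate drop, or a poor fit; inactive = every run inactive, including rises or flat response.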
# Experiment: LuxS/LuxPQ-dependent luminescence inhibition, V. harveyi – dry powder, set 4, dose response (AID 493101)
# Settings: Vibrio harveyi JMH597 AI-2 quorum sensing luminescence, 9 h; at 16 µM (top of the series)
row,Structure (SMILES),"activity change, negative = inhibition"
1,C=Cn1c(C(=O)O)ccc1-c1ccc(OC)cc1,inconclusive: -97.7%
2,Cn1cnc(S(=O)(=O)Nc2ccccc2Cl)c1,inactive: 3.87%
